{"source": "patent US20240226160A9", "about": "“ACTIVITY-INDUCIBLE FUSION PROTEINS HAVING A HEAT SHOCK PROTEIN 90 BINDING DOMAIN” (Seattle Children's Hospital d/b/a Seattle Children's …, priority 2021, published 2024)", "assay_type_in_all_cases": "cell-based", "key": {"[1]": {"test_system": "huCD19CAR-EBD(4OHT)", "assay": "Chromium release assay, glycine linker variants", "details": "Donor 3; for regulation of NoGly and 1Gly variants (specific cell lysis): 0, 1, 50, 500 nM; for killing relative to constitutive huCD19CAR: 50 nM and 500 nM conditions, NoGly and 1Gly variants"}, "[2]": {"test_system": "EBD(4OHT)", "assay": "CD107a activation assay (flow cytometry MFI)", "details": "24 hr preconditioning, 4 hours co-culture with target tumors"}, "[3]": {"test_system": "huCD19 EBD(4-OHT) CAR", "assay": "Jurkat iSynPro eGFP:ffluc reporter assay (GFP by flow cytometry)", "details": "all Gly linker constructs; K562+CD19"}}, "note": "For at least one compound, name, drawing or mass did not settle the structure."}
{"smiles": "CC/C(=C(\\c1ccc(O)cc1)c1ccc(OCCNC)cc1)c1ccccc1", "note": "[(Z)-endoxifen]", "values": [{"measurement": "regulation of NoGly and 1Gly variants (specific cell lysis)", "setting": "[1]", "result": "successfully regulated"}, {"measurement": "killing relative to constitutive huCD19CAR", "setting": "[1]", "result": "full killing"}, {"measurement": "CD107a response of EBD(4OHT) to drug", "setting": "[2]", "result": "responds to"}, {"measurement": "on/off state by mean fluorescence intensity (MFI)", "setting": "[3]", "result": "on/off state"}]}
{"smiles": "CC/C(=C(\\c1ccc(O)cc1)c1ccc(OCCN(C)C)cc1)c1ccccc1", "note": "[4-OHT, 4-hydroxytamoxifen]", "values": [{"measurement": "regulation of NoGly and 1Gly variants (specific cell lysis)", "setting": "[1]", "result": "successfully regulated"}, {"measurement": "killing relative to constitutive huCD19CAR", "setting": "[1]", "result": "full killing"}, {"measurement": "CD107a response of EBD(4OHT) to drug", "setting": "[2]", "result": "responds to"}, {"measurement": "on/off state by mean fluorescence intensity (MFI)", "setting": "[3]", "result": "on/off state"}]}
